No constants are given. Whether binding was seen depends on the method and setting. Binding seen in cells or lysates may run through a third protein. Some results given as binding are weak or reduced against the parent protein; the word gives no strength. One block for each molecule: values may come before it.
Legend:
[1] = molecular target: T1, TβRI (of the pull-down assays, Fig. 1C) (UniProt P36897); assay: pull-down; pull-down assays with Kindlin-2 domain constructs and TβRI; format not described
T1 sequence: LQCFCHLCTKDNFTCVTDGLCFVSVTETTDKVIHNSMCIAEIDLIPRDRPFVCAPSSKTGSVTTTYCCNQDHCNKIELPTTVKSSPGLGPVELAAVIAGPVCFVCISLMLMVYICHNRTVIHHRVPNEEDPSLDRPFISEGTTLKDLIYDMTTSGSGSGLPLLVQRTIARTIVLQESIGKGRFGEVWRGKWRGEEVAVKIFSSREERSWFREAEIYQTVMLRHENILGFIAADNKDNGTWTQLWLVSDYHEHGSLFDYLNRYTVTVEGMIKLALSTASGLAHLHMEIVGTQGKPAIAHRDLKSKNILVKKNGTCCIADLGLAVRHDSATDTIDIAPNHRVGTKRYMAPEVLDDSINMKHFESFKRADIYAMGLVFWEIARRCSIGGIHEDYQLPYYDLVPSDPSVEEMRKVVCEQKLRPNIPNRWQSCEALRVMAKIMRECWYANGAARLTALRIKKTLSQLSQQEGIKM

The chains behind the UniProt entries cited, without tags or fusion partners. Where a name states a change or a piece, a line headed by the entry shows the natural chain unless it says otherwise.
UniProt P05556: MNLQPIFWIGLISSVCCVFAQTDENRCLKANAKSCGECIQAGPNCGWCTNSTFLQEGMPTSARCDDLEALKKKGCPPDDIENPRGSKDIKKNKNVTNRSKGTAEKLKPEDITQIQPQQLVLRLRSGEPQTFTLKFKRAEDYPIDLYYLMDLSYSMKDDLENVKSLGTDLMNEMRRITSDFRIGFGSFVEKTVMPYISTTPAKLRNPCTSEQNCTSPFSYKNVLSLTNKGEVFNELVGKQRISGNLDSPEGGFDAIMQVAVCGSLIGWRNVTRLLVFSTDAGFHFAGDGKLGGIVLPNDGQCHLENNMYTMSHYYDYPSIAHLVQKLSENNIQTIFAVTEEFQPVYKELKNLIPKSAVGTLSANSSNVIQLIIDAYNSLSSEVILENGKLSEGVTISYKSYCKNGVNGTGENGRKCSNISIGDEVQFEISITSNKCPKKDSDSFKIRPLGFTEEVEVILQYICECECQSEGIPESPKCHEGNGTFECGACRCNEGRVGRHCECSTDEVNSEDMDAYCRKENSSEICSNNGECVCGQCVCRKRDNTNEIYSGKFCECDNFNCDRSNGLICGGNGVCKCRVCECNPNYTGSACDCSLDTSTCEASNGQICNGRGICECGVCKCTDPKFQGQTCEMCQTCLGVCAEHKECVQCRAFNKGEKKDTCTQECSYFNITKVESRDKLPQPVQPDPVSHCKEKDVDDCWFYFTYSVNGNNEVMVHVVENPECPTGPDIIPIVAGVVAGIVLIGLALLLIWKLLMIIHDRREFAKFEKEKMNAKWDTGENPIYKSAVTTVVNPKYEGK
UniProt Q96AC1: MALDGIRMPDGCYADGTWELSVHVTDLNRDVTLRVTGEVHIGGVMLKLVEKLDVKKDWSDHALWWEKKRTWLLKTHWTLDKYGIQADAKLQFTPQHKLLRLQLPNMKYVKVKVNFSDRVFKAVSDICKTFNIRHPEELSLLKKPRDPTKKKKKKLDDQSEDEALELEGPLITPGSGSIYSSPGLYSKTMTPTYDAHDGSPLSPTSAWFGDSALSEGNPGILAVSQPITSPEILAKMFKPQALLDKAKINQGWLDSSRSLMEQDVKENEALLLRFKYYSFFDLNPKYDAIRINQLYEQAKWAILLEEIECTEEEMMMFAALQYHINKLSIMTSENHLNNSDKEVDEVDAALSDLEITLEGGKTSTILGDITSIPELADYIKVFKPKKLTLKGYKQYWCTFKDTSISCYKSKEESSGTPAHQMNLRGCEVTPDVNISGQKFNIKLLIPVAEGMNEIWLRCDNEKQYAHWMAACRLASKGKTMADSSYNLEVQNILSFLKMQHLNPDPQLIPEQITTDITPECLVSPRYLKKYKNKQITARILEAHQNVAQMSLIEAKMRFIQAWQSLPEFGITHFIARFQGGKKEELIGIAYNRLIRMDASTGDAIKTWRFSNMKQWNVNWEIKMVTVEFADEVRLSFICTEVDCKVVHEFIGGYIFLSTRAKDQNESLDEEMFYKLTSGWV

[2] = molecular target: T2, TGF-β type 1 receptor (endogenous, MDA-MB-231) (human (endogenous in MDA-MB-231)) (UniProt P36897); assay: co-IP; total protein lysates of MDA-MB-231 cells (RIPA or NP40 lysis buffer), endogenous proteins, incubated at 4 °C with protein A resin and specific antibodies, western blot
T2 sequence: T1 sequence

[3] = molecular target: β1-Integrin (endogenous, MDA-MB-231) (human (endogenous in MDA-MB-231)) (UniProt P05556); assay: as above
[4] = molecular target: Kindlin-2 (endogenous, MDA-MB-231) (human (endogenous in MDA-MB-231)) (UniProt Q96AC1); assay: as above

binding [1]: binds
Molecule: Kindlin-2 (construct of the pull-down assays, Fig. 1C) (from UniProt Q96AC1 1-680)

binding [2]: binds
binding [3]: binds
Molecule: Kindlin-2 (endogenous, MDA-MB-231) (from UniProt Q96AC1 1-680)

binding [4]: binds
binding [2]: binds
Molecule: β1-Integrin (endogenous, MDA-MB-231) (from UniProt P05556 21-798) (receptor)

binding [4]: binds
binding [3]: binds
B1: TGF-β type 1 receptor (endogenous, MDA-MB-231) (receptor, UniProt P36897 34-503)
chain: T1 sequence
